Measurements reported in the supplement of paper PMC10849652.
The list shows a part of the results.

Sequences of proteins named here, by UniProt entry; tags and fusion partners are left off. A change or cut given only in a name is not applied to a line headed by its entry.
UniProt Q9UGK8: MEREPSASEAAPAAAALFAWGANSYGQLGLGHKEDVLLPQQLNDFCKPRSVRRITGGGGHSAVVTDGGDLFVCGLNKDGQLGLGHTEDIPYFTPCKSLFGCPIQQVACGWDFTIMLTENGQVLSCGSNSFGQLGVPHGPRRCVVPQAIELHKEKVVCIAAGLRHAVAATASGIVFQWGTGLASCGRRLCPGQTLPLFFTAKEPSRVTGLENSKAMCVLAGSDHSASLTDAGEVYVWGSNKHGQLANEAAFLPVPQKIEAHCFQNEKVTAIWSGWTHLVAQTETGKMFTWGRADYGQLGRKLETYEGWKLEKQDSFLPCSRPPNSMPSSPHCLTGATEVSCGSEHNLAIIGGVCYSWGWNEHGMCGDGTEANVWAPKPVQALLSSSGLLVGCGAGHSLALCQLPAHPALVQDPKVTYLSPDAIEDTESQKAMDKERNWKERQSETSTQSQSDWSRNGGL
UniProt Q9NVA2: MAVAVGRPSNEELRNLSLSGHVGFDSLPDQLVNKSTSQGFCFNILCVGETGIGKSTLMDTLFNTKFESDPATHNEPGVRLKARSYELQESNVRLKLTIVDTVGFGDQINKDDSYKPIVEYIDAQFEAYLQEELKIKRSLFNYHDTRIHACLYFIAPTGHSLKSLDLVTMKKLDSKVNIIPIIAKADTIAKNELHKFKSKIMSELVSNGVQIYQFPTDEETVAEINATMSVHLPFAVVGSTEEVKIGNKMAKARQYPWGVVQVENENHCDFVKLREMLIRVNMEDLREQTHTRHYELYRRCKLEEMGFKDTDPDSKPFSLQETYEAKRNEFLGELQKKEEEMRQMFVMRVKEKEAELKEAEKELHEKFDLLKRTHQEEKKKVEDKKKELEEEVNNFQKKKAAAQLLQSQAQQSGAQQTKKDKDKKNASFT
UniProt Q9NXA8: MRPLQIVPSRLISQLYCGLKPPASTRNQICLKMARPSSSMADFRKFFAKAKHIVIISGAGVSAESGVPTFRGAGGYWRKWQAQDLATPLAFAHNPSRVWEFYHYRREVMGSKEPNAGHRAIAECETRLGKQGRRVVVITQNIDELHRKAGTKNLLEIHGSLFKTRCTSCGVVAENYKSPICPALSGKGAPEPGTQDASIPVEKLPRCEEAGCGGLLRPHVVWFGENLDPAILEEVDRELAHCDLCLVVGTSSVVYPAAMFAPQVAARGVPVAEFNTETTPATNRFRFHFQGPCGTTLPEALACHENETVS
UniProt Q9H173: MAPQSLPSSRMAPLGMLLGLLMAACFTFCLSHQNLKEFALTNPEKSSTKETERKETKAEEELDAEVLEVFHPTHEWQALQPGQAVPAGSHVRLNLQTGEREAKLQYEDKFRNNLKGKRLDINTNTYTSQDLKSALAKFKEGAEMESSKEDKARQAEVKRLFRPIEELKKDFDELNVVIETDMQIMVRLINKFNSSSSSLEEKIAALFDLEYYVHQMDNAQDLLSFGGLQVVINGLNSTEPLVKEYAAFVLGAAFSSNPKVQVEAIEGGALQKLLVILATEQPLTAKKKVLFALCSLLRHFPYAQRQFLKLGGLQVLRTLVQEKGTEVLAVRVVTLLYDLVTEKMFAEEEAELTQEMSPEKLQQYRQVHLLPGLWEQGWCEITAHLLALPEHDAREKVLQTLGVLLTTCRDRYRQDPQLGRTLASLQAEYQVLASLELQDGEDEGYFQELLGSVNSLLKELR
UniProt P23246: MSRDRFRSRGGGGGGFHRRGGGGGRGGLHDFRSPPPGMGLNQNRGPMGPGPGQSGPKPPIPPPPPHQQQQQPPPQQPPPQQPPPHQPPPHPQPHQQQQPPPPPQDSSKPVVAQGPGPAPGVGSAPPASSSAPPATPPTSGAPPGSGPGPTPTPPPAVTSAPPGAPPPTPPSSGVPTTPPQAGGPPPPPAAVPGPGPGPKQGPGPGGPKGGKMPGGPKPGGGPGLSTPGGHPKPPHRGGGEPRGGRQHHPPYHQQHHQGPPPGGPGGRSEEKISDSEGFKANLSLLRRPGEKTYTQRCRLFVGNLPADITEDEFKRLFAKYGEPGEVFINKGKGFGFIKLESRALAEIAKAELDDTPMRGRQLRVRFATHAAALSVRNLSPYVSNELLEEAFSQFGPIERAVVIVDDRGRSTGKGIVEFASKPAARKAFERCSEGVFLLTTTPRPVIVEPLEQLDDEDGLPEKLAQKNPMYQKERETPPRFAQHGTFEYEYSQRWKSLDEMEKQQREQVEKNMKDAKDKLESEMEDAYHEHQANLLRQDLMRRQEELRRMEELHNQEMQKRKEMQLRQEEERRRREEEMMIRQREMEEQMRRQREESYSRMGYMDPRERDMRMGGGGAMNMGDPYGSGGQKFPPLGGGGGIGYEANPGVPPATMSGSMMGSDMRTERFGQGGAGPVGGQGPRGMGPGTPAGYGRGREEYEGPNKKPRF
UniProt Q9H9B4: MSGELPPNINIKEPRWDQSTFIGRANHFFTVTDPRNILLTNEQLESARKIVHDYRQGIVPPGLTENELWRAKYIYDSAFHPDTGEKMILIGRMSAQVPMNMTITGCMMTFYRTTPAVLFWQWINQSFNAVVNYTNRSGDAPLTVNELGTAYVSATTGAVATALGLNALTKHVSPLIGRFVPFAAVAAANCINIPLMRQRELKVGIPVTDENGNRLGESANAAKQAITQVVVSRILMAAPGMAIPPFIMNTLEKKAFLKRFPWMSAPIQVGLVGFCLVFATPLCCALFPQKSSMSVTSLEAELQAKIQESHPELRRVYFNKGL
UniProt P60468, whole entry, looked up: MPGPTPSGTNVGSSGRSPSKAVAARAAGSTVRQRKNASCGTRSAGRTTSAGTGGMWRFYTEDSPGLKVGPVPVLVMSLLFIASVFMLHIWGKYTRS
UniProt Q96ES7: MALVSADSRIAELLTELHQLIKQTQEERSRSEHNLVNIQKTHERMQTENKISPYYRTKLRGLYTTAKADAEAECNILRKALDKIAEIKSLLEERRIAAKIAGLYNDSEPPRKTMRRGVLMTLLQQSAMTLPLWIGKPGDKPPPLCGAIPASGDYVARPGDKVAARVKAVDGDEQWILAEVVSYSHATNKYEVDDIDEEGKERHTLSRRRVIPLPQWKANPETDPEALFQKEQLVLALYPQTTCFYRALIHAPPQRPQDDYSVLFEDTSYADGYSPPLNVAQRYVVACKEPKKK
UniProt Q96ST3: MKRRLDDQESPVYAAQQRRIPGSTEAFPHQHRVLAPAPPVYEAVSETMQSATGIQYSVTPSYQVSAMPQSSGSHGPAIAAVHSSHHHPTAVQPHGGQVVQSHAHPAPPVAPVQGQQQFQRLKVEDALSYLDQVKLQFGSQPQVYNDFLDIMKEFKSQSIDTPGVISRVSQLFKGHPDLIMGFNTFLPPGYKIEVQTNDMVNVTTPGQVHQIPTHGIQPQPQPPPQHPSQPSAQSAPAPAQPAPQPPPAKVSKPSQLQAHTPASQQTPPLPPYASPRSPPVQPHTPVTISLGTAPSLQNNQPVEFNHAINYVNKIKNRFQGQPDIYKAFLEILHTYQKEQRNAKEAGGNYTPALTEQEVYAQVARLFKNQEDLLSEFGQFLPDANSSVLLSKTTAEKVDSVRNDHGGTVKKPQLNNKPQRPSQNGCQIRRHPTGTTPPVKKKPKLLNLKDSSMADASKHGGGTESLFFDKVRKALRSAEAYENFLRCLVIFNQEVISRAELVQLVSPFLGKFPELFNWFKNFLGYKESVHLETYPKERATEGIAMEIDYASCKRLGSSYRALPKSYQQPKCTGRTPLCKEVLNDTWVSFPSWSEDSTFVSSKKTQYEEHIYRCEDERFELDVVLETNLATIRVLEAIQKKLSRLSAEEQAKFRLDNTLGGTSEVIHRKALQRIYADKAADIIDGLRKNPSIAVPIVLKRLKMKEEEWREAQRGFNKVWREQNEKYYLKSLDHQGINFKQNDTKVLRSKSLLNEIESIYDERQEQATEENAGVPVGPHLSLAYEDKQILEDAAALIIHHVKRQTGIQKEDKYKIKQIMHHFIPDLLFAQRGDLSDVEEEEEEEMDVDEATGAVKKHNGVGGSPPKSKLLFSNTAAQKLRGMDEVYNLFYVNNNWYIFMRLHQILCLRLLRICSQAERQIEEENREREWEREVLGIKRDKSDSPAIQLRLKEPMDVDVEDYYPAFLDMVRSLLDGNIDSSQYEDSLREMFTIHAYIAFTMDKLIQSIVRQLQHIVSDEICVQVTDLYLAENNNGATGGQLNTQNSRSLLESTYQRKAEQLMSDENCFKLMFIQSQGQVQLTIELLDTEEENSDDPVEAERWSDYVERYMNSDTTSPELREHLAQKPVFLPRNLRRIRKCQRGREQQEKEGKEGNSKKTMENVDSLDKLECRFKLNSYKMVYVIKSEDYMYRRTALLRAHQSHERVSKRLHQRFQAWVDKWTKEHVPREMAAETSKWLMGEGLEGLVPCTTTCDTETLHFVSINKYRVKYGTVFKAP
UniProt O75368: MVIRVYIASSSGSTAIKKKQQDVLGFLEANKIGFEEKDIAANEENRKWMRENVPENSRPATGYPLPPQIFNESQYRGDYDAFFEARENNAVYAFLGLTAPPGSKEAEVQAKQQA
UniProt P01008, whole entry, looked up: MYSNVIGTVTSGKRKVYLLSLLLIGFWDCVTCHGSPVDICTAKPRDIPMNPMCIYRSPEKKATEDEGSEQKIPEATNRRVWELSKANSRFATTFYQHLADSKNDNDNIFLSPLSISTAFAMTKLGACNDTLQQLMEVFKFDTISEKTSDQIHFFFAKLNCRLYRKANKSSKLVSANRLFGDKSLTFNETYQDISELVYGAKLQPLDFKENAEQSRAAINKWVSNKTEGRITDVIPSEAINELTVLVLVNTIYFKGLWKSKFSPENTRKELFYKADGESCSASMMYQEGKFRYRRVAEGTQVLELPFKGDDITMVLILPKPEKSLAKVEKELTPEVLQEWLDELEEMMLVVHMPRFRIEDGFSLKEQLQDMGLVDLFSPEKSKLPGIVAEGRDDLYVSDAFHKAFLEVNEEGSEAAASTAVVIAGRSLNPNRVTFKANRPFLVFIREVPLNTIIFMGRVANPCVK
UniProt Q8N6T7, whole entry, looked up: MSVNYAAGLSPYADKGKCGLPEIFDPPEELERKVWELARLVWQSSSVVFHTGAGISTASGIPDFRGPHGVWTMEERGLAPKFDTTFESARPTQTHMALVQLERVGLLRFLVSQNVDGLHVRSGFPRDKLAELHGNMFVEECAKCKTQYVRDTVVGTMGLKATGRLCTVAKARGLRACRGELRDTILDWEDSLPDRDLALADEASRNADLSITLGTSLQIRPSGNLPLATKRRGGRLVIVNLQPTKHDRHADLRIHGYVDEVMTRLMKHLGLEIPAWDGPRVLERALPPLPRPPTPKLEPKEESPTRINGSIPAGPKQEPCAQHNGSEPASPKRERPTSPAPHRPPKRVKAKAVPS
UniProt P50454: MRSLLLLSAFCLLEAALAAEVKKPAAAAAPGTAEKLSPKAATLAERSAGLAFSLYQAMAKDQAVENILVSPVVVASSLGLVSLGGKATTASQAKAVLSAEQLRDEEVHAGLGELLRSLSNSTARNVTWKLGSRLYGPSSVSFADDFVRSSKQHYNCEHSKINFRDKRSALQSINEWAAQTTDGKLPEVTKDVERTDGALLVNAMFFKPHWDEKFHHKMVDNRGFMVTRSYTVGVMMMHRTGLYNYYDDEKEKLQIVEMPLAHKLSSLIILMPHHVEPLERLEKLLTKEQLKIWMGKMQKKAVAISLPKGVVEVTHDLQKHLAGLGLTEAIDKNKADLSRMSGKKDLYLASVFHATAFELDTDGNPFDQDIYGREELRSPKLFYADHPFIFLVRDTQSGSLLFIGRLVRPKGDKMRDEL
UniProt P34896: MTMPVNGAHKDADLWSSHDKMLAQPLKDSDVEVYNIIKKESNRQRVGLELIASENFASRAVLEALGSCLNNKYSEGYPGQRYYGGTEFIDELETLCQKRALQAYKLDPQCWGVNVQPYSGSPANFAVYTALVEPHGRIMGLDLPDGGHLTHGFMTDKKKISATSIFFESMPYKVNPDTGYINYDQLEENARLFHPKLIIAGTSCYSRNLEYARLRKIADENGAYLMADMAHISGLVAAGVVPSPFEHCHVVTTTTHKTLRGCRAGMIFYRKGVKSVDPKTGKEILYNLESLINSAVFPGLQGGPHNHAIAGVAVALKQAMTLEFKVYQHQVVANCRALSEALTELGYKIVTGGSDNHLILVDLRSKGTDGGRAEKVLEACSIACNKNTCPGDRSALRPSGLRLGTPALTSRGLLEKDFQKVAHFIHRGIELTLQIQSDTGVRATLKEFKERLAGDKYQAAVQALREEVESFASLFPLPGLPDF

Assays:
Experiment in all cases: log2 fold change, soluble protein after heating vs DMSO (PISA); higher = thermal stabilisation; K562 cells, 10 uM, 30 min; active = over 0.2 and 3.5 SD of the protein, either way, in both replicates (recomputed)
[1] = compound: CS(=O)(=O)c1ccc(-c2cnc(N)c(C(=O)Nc3ccccc3)n2)cc1
Method in brief: (§1)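 Soluble protein was quantified by TMTpro 16plex LC-MS/MS after channel sums were equalised. It was obtained as the supernatant after 21,000xg for 90 min from pooled aliquots of K562 cells (2×10^6 cells/mL, 10 μM compound, 30 min) heated for 3 min across 48°C-58°C and extracted in PBS with 0.5% NP-40 at 4°C. Thermal stability values are relative to control samples and come from duplicates. They are given as log2 fold changes.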

crizotinib = compound: C[C@@H](Oc1cc(-c2cnn(C3CCNCC3)c2)cnc1N)c1c(Cl)ccc(F)c1Cl [crizotinib]
Method in brief: as §1

[2] = compound: C[C@@H]1COCCN1C2=NC(=NC(=C2)C3(CC3)S(=O)(=O)C)C4=C5C=CNC5=CC=C4
Method in brief: as §1

[3] = compound: C[C@H](C1=CC=C(C=C1)C(=O)NC2=C3C=CNC3=NC=C2)N
Method in brief: as §1

duvelisib = compound: C[C@H](Nc1ncnc2nc[nH]c12)c1cc2cccc(Cl)c2c(=O)n1-c1ccccc1 [duvelisib]
Method in brief: as §1

gandotinib = compound: Cc1cc(Nc2cc(CN3CCOCC3)c3nc(C)c(Cc4ccc(Cl)cc4F)n3n2)n[nH]1 [gandotinib]
Method in brief: as §1

tozasertib = compound: Cc1cc(Nc2cc(N3CCN(C)CC3)nc(Sc3ccc(NC(=O)C4CC4)cc3)n2)n[nH]1 [tozasertib]
Method in brief: as §1

[4] = compound: Cc1cc(SCc2sc(-c3ccc(C(F)(F)F)cc3)nc2C)ccc1OCC(=O)O
Method in brief: as §1

doramapimod = compound: Cc1ccc(-n2nc(C(C)(C)C)cc2NC(=O)Nc2ccc(OCCN3CCOCC3)c3ccccc23)cc1 [doramapimod]
Method in brief: as §1

ispinesib = compound: Cc1ccc(C(=O)N(CCCN)[C@@H](c2nc3cc(Cl)ccc3c(=O)n2Cc2ccccc2)C(C)C)cc1 [ispinesib]
Method in brief: as §1

bafetinib = compound: Cc1ccc(NC(=O)c2ccc(CN3CC[C@H](N(C)C)C3)c(C(F)(F)F)c2)cc1Nc1nccc(-c2cncnc2)n1 [bafetinib]
Method in brief: as §1

[5] = compound: Cc1cccc(CC(=O)N2CCc3c2ccc(-c2cn(C)c4ncnc(N)c24)c3F)n1
Method in brief: as §1

nilotinib = compound: Cc1cn(-c2cc(NC(=O)c3ccc(C)c(Nc4nccc(-c5cccnc5)n4)c3)cc(C(F)(F)F)c2)cn1 [nilotinib]
Method in brief: as §1

[6] = compound: Cc1nc(Nc2n[nH]c3c2CN(C(=O)N[C@H](CN(C)C)c2ccccc2)C3(C)C)c2sccc2n1
Method in brief: as §1

dasatinib = compound: Cc1nc(Nc2ncc(C(=O)Nc3c(C)cccc3Cl)s2)cc(N2CCN(CCO)CC2)n1 [dasatinib]
Method in brief: as §1

[7] = compound: Cc1ncc(-c2ccnc(Nc3ccc(S(C)(=O)=O)cc3)n2)n1C(C)C
Method in brief: as §1

[8] = compound: Cn1cc(-c2ccc3c(c2)CCN3C(=O)Cc2cccc(C(F)(F)F)c2)c2c(N)ncnc21
Method in brief: as §1

[9] = compound: Cn1cc(-c2ccc3nnc(C(F)(F)c4ccc5ncccc5c4)n3n2)cn1
Method in brief: as §1

tipifarnib = compound: Cn1cncc1[C@@](N)(c1ccc(Cl)cc1)c1ccc2c(c1)c(-c1cccc(Cl)c1)cc(=O)n2C [tipifarnib]
Method in brief: as §1

mubritinib = compound: FC(F)(F)c1ccc(/C=C/c2nc(COc3ccc(CCCCn4ccnn4)cc3)co2)cc1 [mubritinib]
Method in brief: as §1

Measured: log2 fold change

SERGEF (UniProt Q9UGK8)
inactive: [1] 0.077 | crizotinib -0.111 | [2] 0.053 | [3] 0.013 | duvelisib 0.204 | gandotinib 0.04 | tozasertib -0.033 | [4] 0.058 | doramapimod -0.01 | ispinesib -0.156 | bafetinib 0.027 | [5] 0.073 | nilotinib -0.037 | [6] 0.028 | dasatinib -0.035 | [7] -0.049 | [8] 0.111 | [9] 0.058 | tipifarnib -0.013 | mubritinib 0.062

SEPTIN11 isoform 2 (UniProt Q9NVA2)
inactive: [1] 0.024 | crizotinib 0.034 | [2] 0.01 | [3] -0.024 | duvelisib 0.022 | gandotinib 0.006 | tozasertib -0.051 | [4] -0.089 | doramapimod -0.032 | ispinesib 0.022 | bafetinib -0.063 | [5] -0.048 | nilotinib 0.013 | [6] -0.015 | dasatinib 0.028 | [7] -0.014 | [8] 0.02 | [9] 0.004 | tipifarnib -0.026 | mubritinib 0.045

SHOC2 (UniProt Q9UQ13)
inactive: [1] 0.078 | crizotinib 0.017 | [2] 0.018 | [3] -0.002 | duvelisib 0.013 | gandotinib 0 | tozasertib -0.034 | [4] 0.005 | doramapimod 0.012 | ispinesib -0.008 | bafetinib -0.042 | [5] -0.01 | nilotinib -0.073 | [6] 0.016 | dasatinib -0.044 | [7] -0.028 | [8] 0.121 | [9] -0.064 | tipifarnib -0.008 | mubritinib 0.069

SIRT5 (UniProt Q9NXA8)
inactive: [1] 0.025 | crizotinib 0.193 | [2] 0.273 | [3] -0.059 | duvelisib 0.054 | gandotinib 0.024 | tozasertib 0.032 | [4] 0.062 | doramapimod -0.089 | ispinesib -0.04 | bafetinib 0.074 | [5] 0.027 | nilotinib 0.005 | [6] -0.026 | dasatinib 0.012 | [7] 0.016 | [8] -0.027 | [9] -0.158 | tipifarnib -0.027 | mubritinib 0.2

SIL1 (UniProt Q9H173)
inactive: [1] 0.007 | crizotinib -0.008 | [2] -0.024 | [3] 0.14 | duvelisib 0.016 | gandotinib 0.013 | tozasertib 0.03 | [4] -0.016 | doramapimod 0.076 | ispinesib 0.102 | bafetinib 0.063 | [5] 0.043 | nilotinib -0.045 | [6] 0.021 | dasatinib 0.031 | [7] -0.117 | [8] -0.074 | [9] -0.002 | tipifarnib 0.115 | mubritinib -0.08

SFPQ (UniProt P23246)
inactive: [1] -0.055 | crizotinib 0.008 | [2] -0.164 | [3] 0.123 | duvelisib -0.03 | gandotinib 0.046 | tozasertib 0.058 | [4] 0.026 | doramapimod 0.041 | ispinesib -0.075 | bafetinib 0.075 | [5] -0.051 | nilotinib -0.045 | [6] -0.093 | dasatinib 0.054 | [7] -0.035 | [8] -0.121 | [9] -0.105 | tipifarnib 0.023 | mubritinib -0.146

SFXN1 (UniProt Q9H9B4)
inactive: [1] 0 | crizotinib -0.01 | [2] 0.139 | [3] -0.069 | duvelisib 0.049 | gandotinib -0.094 | tozasertib -0.014 | [4] -0.023 | doramapimod -0.035 | ispinesib -0.014 | bafetinib -0.082 | [5] 0.061 | nilotinib -0.034 | [6] 0.001 | dasatinib 0 | [7] -0.027 | [8] 0.111 | [9] 0.028 | tipifarnib -0.053 | mubritinib 0.028

SEC61B (UniProt P60468)
inactive: [1] 0.004 | crizotinib 0.075 | [2] -0.027 | [3] -0.024 | duvelisib 0.013 | gandotinib 0.064 | tozasertib -0.015 | [4] -0.092 | doramapimod 0 | ispinesib 0.005 | bafetinib -0.102 | [5] -0.045 | nilotinib 0.021 | [6] 0.012 | dasatinib 0.039 | [7] -0.046 | [8] -0.011 | [9] -0.016 | tipifarnib 0.148 | mubritinib 0.029

SGF29 (UniProt Q96ES7)
inactive: [1] -0.006 | crizotinib -0.042 | [2] -0.013 | [3] -0.018 | duvelisib 0.025 | gandotinib 0.011 | tozasertib -0.094 | [4] -0.014 | doramapimod 0.005 | ispinesib -0.011 | bafetinib -0.038 | [5] -0.065 | nilotinib 0.025 | [6] -0.015 | dasatinib -0.071 | [7] -0.07 | [8] 0.022 | [9] -0.11 | tipifarnib -0.006 | mubritinib 0.024

SH3BP1 (UniProt Q9Y3L3)
inactive: [1] 0.044 | crizotinib -0.04 | [2] 0.017 | [3] -0.067 | duvelisib 0.037 | gandotinib 0.006 | tozasertib -0.02 | [4] -0.004 | doramapimod -0.007 | ispinesib 0.022 | bafetinib -0.004 | [5] -0.015 | nilotinib 0.024 | [6] -0.049 | dasatinib -0.06 | [7] -0.007 | [8] 0.027 | [9] -0.024 | tipifarnib -0.028 | mubritinib 0.088

SIN3A (UniProt Q96ST3)
inactive: [1] -0.106 | crizotinib -0.032 | [2] -0.004 | [3] -0.015 | duvelisib 0.019 | gandotinib -0.134 | tozasertib 0.186 | [4] -0.031 | doramapimod 0.047 | ispinesib -0.096 | bafetinib 0.054 | [5] 0.047 | nilotinib -0.002 | [6] -0.059 | dasatinib 0.016 | [7] -0.006 | [8] 0.011 | [9] -0.093 | tipifarnib -0.016 | mubritinib -0.001

SH3BGRL (UniProt O75368)
inactive: [1] -0.086 | crizotinib 0.068 | [2] 0.088 | [3] -0.123 | duvelisib 0.055 | gandotinib 0.115 | tozasertib 0.019 | [4] -0.015 | doramapimod 0 | ispinesib 0.113 | bafetinib -0.003 | [5] -0.127 | nilotinib 0.015 | [6] -0.013 | dasatinib -0.028 | [7] -0.003 | [8] 0.086 | [9] 0.018 | tipifarnib -0.074 | mubritinib 0.033

SERPINC1 (UniProt P01008)
inactive: [1] 0.025 | crizotinib 0.002 | [2] 0.155 | [3] 0.289 | duvelisib -0.267 | gandotinib 0.045 | tozasertib -0.161 | [4] -0.094 | doramapimod 0.104 | ispinesib -0.076 | bafetinib -0.035 | [5] -0.065 | nilotinib 0.02 | [6] 0.072 | dasatinib 0.063 | [7] 0.293 | [8] 0.175 | [9] -0.034 | tipifarnib 0 | mubritinib -0.321

SIRT6 (UniProt Q8N6T7)
inactive: [1] 0.01 | crizotinib 0.156 | [2] 0.19 | [3] 0.002 | duvelisib 0.092 | gandotinib 0.071 | tozasertib -0.063 | [4] -0.056 | doramapimod -0.075 | ispinesib -0.111 | bafetinib 0.139 | [5] -0.043 | nilotinib -0.143 | [6] 0.06 | dasatinib -0.085 | [7] -0.022 | [8] 0.086 | [9] -0.076 | tipifarnib -0.014 | mubritinib 0.001

SERPINH1 (UniProt P50454)
inactive: [1] 0.033 | crizotinib 0.082 | [2] -0.019 | [3] 0.015 | duvelisib -0.003 | gandotinib 0.031 | tozasertib 0.004 | [4] -0.009 | doramapimod -0.007 | ispinesib 0.061 | bafetinib -0.02 | [5] -0.003 | nilotinib -0.003 | [6] 0.024 | dasatinib 0.017 | [7] -0.01 | [8] -0.009 | [9] -0.009 | tipifarnib 0.023 | mubritinib -0.027

SHMT1 (UniProt P34896)
inactive: [1] -0.01 | crizotinib 0.05 | [2] 0.101 | [3] -0.036 | duvelisib 0.048 | gandotinib 0.035 | tozasertib -0.004 | [4] -0.021 | doramapimod 0.002 | ispinesib 0.045 | bafetinib 0.008 | [5] 0.009 | nilotinib 0.003 | [6] 0.04 | dasatinib 0.03 | [7] 0.006 | [8] 0.022 | [9] 0.025 | tipifarnib -0.028 | mubritinib 0.053

Fetched one by one from the entries so far (2):
SHMT1 (UniProt P34896)
inactive: [1] -0.01 | crizotinib 0.05 | [2] 0.101 | [3] -0.036 | duvelisib 0.048 | gandotinib 0.035 | tozasertib -0.004 | [4] -0.021 | doramapimod 0.002 | ispinesib 0.045 | bafetinib 0.008 | [5] 0.009 | nilotinib 0.003 | [6] 0.04 | dasatinib 0.03 | [7] 0.006 | [8] 0.022 | [9] 0.025 | tipifarnib -0.028 | mubritinib 0.053

SERPINC1 (UniProt P01008)
inactive: [1] 0.025 | crizotinib 0.002 | [2] 0.155 | [3] 0.289 | duvelisib -0.267 | gandotinib 0.045 | tozasertib -0.161 | [4] -0.094 | doramapimod 0.104 | ispinesib -0.076 | bafetinib -0.035 | [5] -0.065 | nilotinib 0.02 | [6] 0.072 | dasatinib 0.063 | [7] 0.293 | [8] 0.175 | [9] -0.034 | tipifarnib 0 | mubritinib -0.321
